From PMC6315034
No constants are given. Whether binding was seen depends on the method and setting. In cells and extracts the contact can be indirect. Some results given as binding are weak or reduced against the parent protein; the word gives no strength.

Amino acid sequences for entries named in this document (tags omitted). Residues count along the entry.
UniProt Q9EP80: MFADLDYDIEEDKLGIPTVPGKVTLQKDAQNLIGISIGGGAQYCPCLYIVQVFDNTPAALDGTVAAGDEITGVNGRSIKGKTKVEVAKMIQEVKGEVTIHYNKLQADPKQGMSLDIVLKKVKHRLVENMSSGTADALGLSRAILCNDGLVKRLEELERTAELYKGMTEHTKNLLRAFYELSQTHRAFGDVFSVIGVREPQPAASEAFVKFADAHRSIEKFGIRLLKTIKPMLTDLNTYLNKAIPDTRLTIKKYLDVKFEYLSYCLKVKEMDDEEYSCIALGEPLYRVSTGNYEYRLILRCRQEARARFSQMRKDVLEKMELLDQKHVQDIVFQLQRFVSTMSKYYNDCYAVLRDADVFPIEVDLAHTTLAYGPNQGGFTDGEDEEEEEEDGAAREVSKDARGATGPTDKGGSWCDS
UniProt P19491, residues 22-883: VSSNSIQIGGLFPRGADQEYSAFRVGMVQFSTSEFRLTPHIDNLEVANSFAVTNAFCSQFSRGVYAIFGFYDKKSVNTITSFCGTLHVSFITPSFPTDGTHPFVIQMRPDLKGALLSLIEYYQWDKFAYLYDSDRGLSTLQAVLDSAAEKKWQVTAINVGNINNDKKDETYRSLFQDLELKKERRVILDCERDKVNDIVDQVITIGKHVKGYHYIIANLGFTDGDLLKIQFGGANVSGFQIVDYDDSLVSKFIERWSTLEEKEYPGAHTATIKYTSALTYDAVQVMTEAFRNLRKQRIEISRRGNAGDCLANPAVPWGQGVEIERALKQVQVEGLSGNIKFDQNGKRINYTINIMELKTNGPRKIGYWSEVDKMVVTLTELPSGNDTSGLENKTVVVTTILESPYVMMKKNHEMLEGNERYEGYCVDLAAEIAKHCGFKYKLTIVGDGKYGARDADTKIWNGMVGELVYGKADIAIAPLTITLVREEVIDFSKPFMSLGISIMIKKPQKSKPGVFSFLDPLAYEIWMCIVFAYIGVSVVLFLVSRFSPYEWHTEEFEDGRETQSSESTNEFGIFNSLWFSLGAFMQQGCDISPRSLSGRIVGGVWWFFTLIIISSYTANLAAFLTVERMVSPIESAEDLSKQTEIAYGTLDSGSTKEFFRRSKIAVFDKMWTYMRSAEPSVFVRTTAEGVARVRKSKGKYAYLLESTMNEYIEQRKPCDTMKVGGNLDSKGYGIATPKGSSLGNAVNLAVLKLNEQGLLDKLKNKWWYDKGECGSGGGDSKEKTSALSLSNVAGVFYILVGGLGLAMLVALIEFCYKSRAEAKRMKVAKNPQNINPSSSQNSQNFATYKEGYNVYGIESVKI

Target: protein interacting with C kinase 1 (not stated (endogenous in rat or mouse primary cortical neurons)) (UniProt Q9EP80)
Experiment: co-IP; lysates of primary cortical neurons; antibody (anti-GluR2, anti-NKAα1 or anti-PICK1) overnight at 4 °C, protein G-agarose 4 h at room temperature, three washes with lysis buffer, Western blot; for GluR2 with PICK1 the neurons were untreated or treated with glutamate (100 µM) + glycine (10 µM) for 30 min, with or without DR-Ab pretreatment

binding: binds
Substance: AMPA receptor subunit GluR2 (from UniProt P19491 22-883)
